According to the supplement of paper PMC4604168 (melanoma cell lines):
Some of the results follow. Repeats are few or missing, and single values can be far off.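 Cells were imaged in 1,536-well plates, and nuclei stained with an antibody against cleaved PARP were counted against all DNA-stained nuclei to give the apoptosis fraction. Screening doses were chosen to leave most cells alive, and resting and induced cleaved-PARP levels differ strongly between cell lines.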

What follows are compounds tested on WM451Lu (assay: cleaved PARP positive nuclei fraction relative to DMSO control; melanoma cells; higher = more apoptosis). Details: library dose: low library concentration; 72 h.

| SMILES | cleaved PARP positive nuclei fraction |
| --- | --- |
| C=C(c1ccc(C(=O)O)cc1)c1cc2c(cc1C)C(C)(C)CCC2(C)C [Bexarotene] + C[As](C)SC[C@H](NC(=O)CC[C@H](N)C(=O)O)C(=O)NCC(=O)O [Darinaparsin] (first compound 2 µM, partner dose 0.4 µM) | 51.5% |
| CC(=O)O[C@@]12CO[C@@H]1C[C@H](O)[C@@]1(C)C(=O)[C@H](O)C3=C(C)[C@@H](OC(=O)[C@H](O)[C@@H](NC(=O)OC(C)(C)C)c4ccccc4)C[C@@](O)([C@@H](OC(=O)c4ccccc4)[C@H]21)C3(C)C [Docetaxel] + N.N.[Cl][Pt][Cl] [cisplatin] (first compound 0.0001 µM, partner dose 1.6 µM) | 63.9% |
| Cc1cc(Nc2cc(N3CCN(C)CC3)nc(/C=C/c3ccccc3)n2)n[nH]1 + O=C(Oc1ccc([N+](=O)[O-])cc1)N1CCC(C(O)(c2ccc3c(c2)OCO3)c2ccc3c(c2)OCO3)CC1 [JZL184] (first compound 0.04 µM, partner dose 1 µM) | 93.8% |
| Cn1cnc2c(F)c(Nc3ccc(Br)cc3Cl)c(C(=O)NOCCO)cc21 [selumetinib] + N.N.[Cl][Pt][Cl] [cisplatin] (first compound 0.015 µM, partner dose 1.6 µM) | 50.1% |
| C[As](C)SC[C@H](NC(=O)CC[C@H](N)C(=O)O)C(=O)NCC(=O)O [Darinaparsin] + COc1cc(N2CCC(N3CCN(C)CC3)CC2)ccc1Nc1ncc(Cl)c(Nc2ccccc2S(=O)(=O)C(C)C)n1 [NVP-TAE684] (first compound 0.4 µM, partner dose 0.08 µM) | 252% |
| CC1(C)CCC(c2ccc(Cl)cc2)=C(CN2CCN(c3ccc(C(=O)NS(=O)(=O)c4ccc(N[C@H](CCN5CCOCC5)CSc5ccccc5)c(S(=O)(=O)C(F)(F)F)c4)cc3)CC2)C1 + Cn1cc(C2=C(c3cn(C4CCN(Cc5ccccn5)CC4)c4ccccc34)C(=O)NC2=O)c2ccccc21 [Enzastaurin] (first compound 0.4 µM, partner dose 0.8 µM) | 536% |
| NC(=O)c1ccc(N(C(N)=O)c2c(F)cccc2F)nc1-c1ccc(F)cc1F + C[As](C)SC[C@H](NC(=O)CC[C@H](N)C(=O)O)C(=O)NCC(=O)O [Darinaparsin] (first compound 0.4 µM, partner dose 0.4 µM) | 37.8% |
| C[C@]12O[C@H](C[C@]1(O)CO)n1c3ccccc3c3c4c(c5c6ccccc6n2c5c31)CNC4=O [Lestaurtinib] + Oc1nc(-c2ccc(C(F)(F)F)cc2)nc2c1CSCC2 [XAV939] (first compound 0.004 µM, partner dose 2 µM) | 60.5% |
| CCCCCCCCCCCCCCCCCCOP(=O)([O-])OC1CC[N+](C)(C)CC1 [Perifosine] + Cn1cc(C2=C(c3cn(C4CCN(Cc5ccccn5)CC4)c4ccccc34)C(=O)NC2=O)c2ccccc21 [Enzastaurin] (first compound 0.4 µM, partner dose 0.8 µM) | 109% |
| COc1cc2ncnc(Nc3ccc(Oc4ccccc4)cc3)c2cc1OC + C/C(O)=C(\C#N)C(=O)Nc1cc(Br)ccc1Br [LFM-A13] (first compound 2 µM, partner dose 2 µM) | 49.9% |
| C[C@]12O[C@H](C[C@]1(O)CO)n1c3ccccc3c3c4c(c5c6ccccc6n2c5c31)CNC4=O [Lestaurtinib] + CCN(CC)CCCCNc1ncc2cc(-c3cc(OC)cc(OC)c3)c(NC(=O)NC(C)(C)C)nc2n1 [PD173074] (first compound 0.004 µM, partner dose 0.1 µM) | 106% |
| NC(=O)Nc1cc(-c2cccc(F)c2)sc1C(=O)N[C@H]1CCCNC1 + C/C(O)=C(\C#N)C(=O)Nc1cc(Br)ccc1Br [LFM-A13] (first compound 0.02 µM, partner dose 2 µM) | 127% |
| Cc1ccc(Nc2nccc(N(C)c3ccc4c(C)n(C)nc4c3)n2)cc1S(N)(=O)=O [Pazopanib] + Cn1cc(C2=C(c3cn(C4CCN(Cc5ccccn5)CC4)c4ccccc34)C(=O)NC2=O)c2ccccc21 [Enzastaurin] (first compound 0.4 µM, partner dose 0.8 µM) | 125% |
| Cc1cc(Nc2cc(N3CCN(C)CC3)nc(Sc3ccc(NC(=O)C4CC4)cc3)n2)n[nH]1 [Tozasertib] + C/C(O)=C(\C#N)C(=O)Nc1cc(Br)ccc1Br [LFM-A13] (first compound 0.006 µM, partner dose 2 µM) | 197% |
| N.N.[Cl][Pt][Cl] [cisplatin] + O=c1cc(-c2cccc3c2Sc2ccccc2S3)oc(N2CCOCC2)c1 [KU55933] (first compound 1.6 µM, partner dose 1 µM) | 142% |
| Cc1cc(SCc2sc(-c3ccc(C(F)(F)F)c(F)c3)nc2C)ccc1OCC(=O)O + O=c1cc(-c2cccc3c2Sc2ccccc2S3)oc(N2CCOCC2)c1 [KU55933] (first compound 2 µM, partner dose 1 µM) | 205% |
| Cn1cc(C2=C(c3cn(C4CCN(Cc5ccccn5)CC4)c4ccccc34)C(=O)NC2=O)c2ccccc21 [Enzastaurin] + CN(c1ncccc1CNc1nc(Nc2ccc3c(c2)CC(=O)N3)ncc1C(F)(F)F)S(C)(=O)=O [PF562271] (first compound 0.8 µM, partner dose 0.08 µM) | 56.5% |
| CN(NC(=O)CC(=O)NN(C)C(=S)c1ccccc1)C(=S)c1ccccc1 + Cc1cc(SCc2sc(-c3ccc(C(F)(F)F)c(F)c3)nc2C)ccc1OCC(=O)O [GW0742] (first compound 0.006 µM, partner dose 2 µM) | 83.9% |
| C[C@]12O[C@H](C[C@]1(O)CO)n1c3ccccc3c3c4c(c5c6ccccc6n2c5c31)CNC4=O [Lestaurtinib] + COc1ccc(COc2ccc(Cc3cnc(N)nc3N)cc2OC)cc1 [GW2580] (first compound 0.004 µM, partner dose 1 µM) | 129% |
| C[C@]12O[C@H](C[C@]1(O)CO)n1c3ccccc3c3c4c(c5c6ccccc6n2c5c31)CNC4=O [Lestaurtinib] + C[C@@H]1CCN(C(=O)CC#N)C[C@@H]1N(C)c1ncnc2[nH]ccc12 [CP690550] (first compound 0.004 µM, partner dose 1 µM) | 74.5% |
| COCC[n+]1c2c(n(Cc3cnccn3)c1C)C(=O)c1ccccc1C2=O + C/C(O)=C(\C#N)C(=O)Nc1cc(Br)ccc1Br [LFM-A13] (first compound 0.0004 µM, partner dose 2 µM) | 89.8% |
| C[C@]12O[C@H](C[C@]1(O)CO)n1c3ccccc3c3c4c(c5c6ccccc6n2c5c31)CNC4=O [Lestaurtinib] + OCCn1cc(-c2cnc3nnn(Cc4ccc5ncccc5c4)c3n2)cn1 [PF04217903] (first compound 0.004 µM, partner dose 1 µM) | 364% |
| COc1cc([C@@H]2c3cc4c(cc3[C@@H](O[C@@H]3O[C@@H]5CO[C@@H](C)O[C@H]5[C@H](O)[C@H]3O)[C@H]3COC(=O)[C@H]23)OCO4)cc(OC)c1O [etoposide] + Cn1cc(C2=C(c3cn(C4CCN(Cc5ccccn5)CC4)c4ccccc34)C(=O)NC2=O)c2ccccc21 [Enzastaurin] (first compound 0.02 µM, partner dose 0.8 µM) | 65.9% |
| C[As](C)SC[C@H](NC(=O)CC[C@H](N)C(=O)O)C(=O)NCC(=O)O [Darinaparsin] + CN(NC(=O)CC(=O)NN(C)C(=S)c1ccccc1)C(=S)c1ccccc1 [STA4783] (first compound 0.4 µM, partner dose 0.006 µM) | 196% |

Part of the list above, tab-delimited.
SMILES	cleaved PARP positive nuclei fraction
Cn1cnc2c(F)c(Nc3ccc(Br)cc3Cl)c(C(=O)NOCCO)cc21 [selumetinib] + N.N.[Cl][Pt][Cl] [cisplatin] (first compound 0.015 µM, partner dose 1.6 µM)	50.1%
NC(=O)c1ccc(N(C(N)=O)c2c(F)cccc2F)nc1-c1ccc(F)cc1F + C[As](C)SC[C@H](NC(=O)CC[C@H](N)C(=O)O)C(=O)NCC(=O)O [Darinaparsin] (first compound 0.4 µM, partner dose 0.4 µM)	37.8%
Cc1ccc(Nc2nccc(N(C)c3ccc4c(C)n(C)nc4c3)n2)cc1S(N)(=O)=O [Pazopanib] + Cn1cc(C2=C(c3cn(C4CCN(Cc5ccccn5)CC4)c4ccccc34)C(=O)NC2=O)c2ccccc21 [Enzastaurin] (first compound 0.4 µM, partner dose 0.8 µM)	125%
N.N.[Cl][Pt][Cl] [cisplatin] + O=c1cc(-c2cccc3c2Sc2ccccc2S3)oc(N2CCOCC2)c1 [KU55933] (first compound 1.6 µM, partner dose 1 µM)	142%
CN(NC(=O)CC(=O)NN(C)C(=S)c1ccccc1)C(=S)c1ccccc1 + Cc1cc(SCc2sc(-c3ccc(C(F)(F)F)c(F)c3)nc2C)ccc1OCC(=O)O [GW0742] (first compound 0.006 µM, partner dose 2 µM)	83.9%
COc1cc([C@@H]2c3cc4c(cc3[C@@H](O[C@@H]3O[C@@H]5CO[C@@H](C)O[C@H]5[C@H](O)[C@H]3O)[C@H]3COC(=O)[C@H]23)OCO4)cc(OC)c1O [etoposide] + Cn1cc(C2=C(c3cn(C4CCN(Cc5ccccn5)CC4)c4ccccc34)C(=O)NC2=O)c2ccccc21 [Enzastaurin] (first compound 0.02 µM, partner dose 0.8 µM)	65.9%
